Reference: the supplement of paper PMC10849652
The list shows a part of the results.

Amino acid sequences for entries named in this document (tags omitted). A change or cut given only in a name is not applied to a line headed by its entry.
UniProt O75607: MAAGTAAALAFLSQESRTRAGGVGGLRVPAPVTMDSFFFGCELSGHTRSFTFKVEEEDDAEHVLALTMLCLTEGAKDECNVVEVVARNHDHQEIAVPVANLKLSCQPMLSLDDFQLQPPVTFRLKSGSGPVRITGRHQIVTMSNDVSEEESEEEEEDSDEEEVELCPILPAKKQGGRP
UniProt Q9BW91: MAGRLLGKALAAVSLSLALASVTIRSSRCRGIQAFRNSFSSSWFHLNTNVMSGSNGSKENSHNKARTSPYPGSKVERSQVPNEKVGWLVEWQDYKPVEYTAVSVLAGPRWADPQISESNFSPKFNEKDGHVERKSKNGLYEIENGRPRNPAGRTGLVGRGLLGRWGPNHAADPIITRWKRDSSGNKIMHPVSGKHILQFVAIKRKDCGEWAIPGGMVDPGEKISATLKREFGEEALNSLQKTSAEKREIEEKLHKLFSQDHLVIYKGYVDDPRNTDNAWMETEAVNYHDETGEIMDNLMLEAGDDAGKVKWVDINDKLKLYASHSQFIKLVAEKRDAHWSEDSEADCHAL
UniProt O75052: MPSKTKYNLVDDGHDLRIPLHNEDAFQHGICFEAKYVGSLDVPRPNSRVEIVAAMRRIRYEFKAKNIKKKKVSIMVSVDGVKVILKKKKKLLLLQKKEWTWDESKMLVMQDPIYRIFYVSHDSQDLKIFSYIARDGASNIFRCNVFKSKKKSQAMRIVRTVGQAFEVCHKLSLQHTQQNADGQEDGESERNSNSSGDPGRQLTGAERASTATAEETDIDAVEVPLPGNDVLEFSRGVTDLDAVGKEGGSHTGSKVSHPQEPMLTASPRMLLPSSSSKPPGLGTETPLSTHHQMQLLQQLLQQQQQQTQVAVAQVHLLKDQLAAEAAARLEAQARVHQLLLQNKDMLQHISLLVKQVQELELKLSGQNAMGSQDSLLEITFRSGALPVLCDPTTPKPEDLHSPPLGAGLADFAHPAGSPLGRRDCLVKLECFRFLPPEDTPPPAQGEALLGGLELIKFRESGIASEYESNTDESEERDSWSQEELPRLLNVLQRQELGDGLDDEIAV
UniProt P78316: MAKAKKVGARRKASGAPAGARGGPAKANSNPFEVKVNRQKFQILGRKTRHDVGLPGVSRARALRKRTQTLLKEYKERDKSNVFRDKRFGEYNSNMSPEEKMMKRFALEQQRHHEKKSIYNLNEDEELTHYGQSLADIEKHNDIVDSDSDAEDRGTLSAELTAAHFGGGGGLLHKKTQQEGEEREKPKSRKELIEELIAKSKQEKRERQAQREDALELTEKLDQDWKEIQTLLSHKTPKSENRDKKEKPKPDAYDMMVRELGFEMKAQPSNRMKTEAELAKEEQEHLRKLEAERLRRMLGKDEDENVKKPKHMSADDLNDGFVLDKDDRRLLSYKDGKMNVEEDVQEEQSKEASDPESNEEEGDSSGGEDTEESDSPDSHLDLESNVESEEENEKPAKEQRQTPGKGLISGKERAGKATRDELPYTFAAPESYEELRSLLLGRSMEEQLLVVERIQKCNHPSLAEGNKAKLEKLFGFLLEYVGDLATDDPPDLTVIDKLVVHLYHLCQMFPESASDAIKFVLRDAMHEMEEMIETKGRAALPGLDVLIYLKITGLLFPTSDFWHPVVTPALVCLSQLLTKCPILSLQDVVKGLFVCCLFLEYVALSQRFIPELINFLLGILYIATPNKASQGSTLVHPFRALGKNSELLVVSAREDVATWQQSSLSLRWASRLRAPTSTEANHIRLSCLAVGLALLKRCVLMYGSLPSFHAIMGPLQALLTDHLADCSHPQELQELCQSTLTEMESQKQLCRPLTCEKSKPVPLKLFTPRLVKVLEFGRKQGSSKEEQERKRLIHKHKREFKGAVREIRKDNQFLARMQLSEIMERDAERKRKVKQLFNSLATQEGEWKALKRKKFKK
UniProt O00567: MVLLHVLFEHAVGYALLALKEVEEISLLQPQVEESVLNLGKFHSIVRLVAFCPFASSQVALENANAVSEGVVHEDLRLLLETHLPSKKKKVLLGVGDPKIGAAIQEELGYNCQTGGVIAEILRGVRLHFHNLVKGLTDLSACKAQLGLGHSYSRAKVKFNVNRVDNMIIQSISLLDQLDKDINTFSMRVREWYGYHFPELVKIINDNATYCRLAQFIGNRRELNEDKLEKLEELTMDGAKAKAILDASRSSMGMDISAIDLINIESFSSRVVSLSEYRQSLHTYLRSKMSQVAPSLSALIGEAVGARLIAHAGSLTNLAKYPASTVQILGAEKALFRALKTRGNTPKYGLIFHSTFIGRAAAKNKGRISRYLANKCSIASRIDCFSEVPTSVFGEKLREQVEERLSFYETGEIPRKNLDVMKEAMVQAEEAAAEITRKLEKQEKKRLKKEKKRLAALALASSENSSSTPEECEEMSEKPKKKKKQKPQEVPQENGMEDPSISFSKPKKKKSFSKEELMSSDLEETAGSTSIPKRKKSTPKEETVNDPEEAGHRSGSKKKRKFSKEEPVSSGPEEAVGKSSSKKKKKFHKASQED
UniProt Q9Y3C1: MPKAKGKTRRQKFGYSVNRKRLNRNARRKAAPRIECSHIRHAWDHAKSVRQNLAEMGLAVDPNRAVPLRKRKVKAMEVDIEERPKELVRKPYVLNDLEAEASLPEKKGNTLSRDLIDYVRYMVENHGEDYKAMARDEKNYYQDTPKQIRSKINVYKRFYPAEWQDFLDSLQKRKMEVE
UniProt Q9NZJ9: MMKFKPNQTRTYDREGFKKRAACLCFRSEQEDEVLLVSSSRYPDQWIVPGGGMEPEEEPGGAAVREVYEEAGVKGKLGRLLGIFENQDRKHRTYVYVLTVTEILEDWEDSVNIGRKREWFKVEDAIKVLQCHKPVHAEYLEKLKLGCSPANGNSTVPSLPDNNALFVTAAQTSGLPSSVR
UniProt Q8WTT2: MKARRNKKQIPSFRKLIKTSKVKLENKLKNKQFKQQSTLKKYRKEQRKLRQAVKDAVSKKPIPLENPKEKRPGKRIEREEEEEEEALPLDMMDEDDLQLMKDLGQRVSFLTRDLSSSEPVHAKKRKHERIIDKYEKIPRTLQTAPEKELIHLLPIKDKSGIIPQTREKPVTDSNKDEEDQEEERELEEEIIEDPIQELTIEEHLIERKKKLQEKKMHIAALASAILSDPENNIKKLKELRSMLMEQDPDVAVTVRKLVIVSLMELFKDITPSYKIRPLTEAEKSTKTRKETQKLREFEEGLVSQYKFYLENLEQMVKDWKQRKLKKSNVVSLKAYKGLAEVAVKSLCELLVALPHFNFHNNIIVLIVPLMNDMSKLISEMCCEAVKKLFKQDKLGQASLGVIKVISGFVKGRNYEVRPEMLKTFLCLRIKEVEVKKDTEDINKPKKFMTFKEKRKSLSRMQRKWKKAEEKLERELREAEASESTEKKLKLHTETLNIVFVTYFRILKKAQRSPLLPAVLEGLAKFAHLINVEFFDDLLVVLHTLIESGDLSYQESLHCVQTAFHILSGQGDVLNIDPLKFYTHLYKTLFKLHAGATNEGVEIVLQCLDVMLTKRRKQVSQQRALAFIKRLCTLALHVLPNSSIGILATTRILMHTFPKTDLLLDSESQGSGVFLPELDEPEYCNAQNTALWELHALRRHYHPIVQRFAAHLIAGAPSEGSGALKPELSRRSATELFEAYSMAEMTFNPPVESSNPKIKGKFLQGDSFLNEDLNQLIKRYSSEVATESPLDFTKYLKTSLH
UniProt Q02818: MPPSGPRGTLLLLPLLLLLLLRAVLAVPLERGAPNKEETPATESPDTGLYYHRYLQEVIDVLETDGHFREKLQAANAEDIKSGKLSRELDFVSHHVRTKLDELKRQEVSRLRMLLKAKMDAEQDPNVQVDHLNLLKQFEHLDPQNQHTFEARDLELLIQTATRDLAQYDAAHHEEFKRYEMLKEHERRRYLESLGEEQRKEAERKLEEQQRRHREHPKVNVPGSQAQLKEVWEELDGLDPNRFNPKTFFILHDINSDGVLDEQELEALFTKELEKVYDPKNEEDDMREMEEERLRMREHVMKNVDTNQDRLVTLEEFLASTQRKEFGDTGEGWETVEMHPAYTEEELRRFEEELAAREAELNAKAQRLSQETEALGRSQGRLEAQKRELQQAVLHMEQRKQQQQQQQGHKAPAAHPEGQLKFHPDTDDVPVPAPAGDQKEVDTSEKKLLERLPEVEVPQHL
UniProt O60361, whole entry, looked up: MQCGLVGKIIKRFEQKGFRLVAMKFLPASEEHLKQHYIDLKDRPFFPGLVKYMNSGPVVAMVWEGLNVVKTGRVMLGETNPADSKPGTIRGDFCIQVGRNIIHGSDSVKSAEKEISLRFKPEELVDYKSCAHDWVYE
UniProt Q76FK4: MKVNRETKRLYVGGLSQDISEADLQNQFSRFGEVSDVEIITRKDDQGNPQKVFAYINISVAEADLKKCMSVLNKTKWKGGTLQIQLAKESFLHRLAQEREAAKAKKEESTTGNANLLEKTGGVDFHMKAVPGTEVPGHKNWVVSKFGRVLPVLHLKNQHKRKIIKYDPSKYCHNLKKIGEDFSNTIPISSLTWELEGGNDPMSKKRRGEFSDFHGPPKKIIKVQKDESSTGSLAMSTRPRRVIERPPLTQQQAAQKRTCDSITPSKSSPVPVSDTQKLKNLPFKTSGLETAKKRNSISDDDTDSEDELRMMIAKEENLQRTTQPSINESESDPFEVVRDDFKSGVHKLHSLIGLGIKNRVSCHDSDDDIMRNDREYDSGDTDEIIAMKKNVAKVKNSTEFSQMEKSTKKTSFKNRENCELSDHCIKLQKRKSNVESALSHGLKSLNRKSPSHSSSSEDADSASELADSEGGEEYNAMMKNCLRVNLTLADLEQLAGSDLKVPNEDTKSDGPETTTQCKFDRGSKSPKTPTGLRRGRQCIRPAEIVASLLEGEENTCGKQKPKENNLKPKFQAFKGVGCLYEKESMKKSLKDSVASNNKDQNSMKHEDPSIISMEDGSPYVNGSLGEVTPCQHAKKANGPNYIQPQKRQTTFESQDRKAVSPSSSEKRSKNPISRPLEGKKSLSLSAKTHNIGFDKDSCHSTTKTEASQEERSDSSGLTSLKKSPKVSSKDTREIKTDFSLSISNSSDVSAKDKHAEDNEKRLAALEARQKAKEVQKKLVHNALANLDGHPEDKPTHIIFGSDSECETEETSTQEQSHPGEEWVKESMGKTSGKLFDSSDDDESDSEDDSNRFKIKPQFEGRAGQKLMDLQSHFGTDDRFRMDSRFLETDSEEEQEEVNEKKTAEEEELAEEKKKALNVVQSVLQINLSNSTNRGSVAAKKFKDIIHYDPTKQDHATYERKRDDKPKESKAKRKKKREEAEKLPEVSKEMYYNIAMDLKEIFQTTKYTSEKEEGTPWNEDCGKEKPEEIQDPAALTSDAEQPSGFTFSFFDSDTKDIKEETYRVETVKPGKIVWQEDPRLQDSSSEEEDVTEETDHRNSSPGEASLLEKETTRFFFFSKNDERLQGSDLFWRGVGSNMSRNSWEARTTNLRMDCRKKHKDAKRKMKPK
UniProt Q8WVJ2: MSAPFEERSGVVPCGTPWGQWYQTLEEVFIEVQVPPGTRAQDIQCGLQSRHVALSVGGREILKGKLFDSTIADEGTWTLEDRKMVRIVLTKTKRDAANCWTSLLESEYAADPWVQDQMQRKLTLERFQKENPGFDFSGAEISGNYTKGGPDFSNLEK
UniProt Q12980: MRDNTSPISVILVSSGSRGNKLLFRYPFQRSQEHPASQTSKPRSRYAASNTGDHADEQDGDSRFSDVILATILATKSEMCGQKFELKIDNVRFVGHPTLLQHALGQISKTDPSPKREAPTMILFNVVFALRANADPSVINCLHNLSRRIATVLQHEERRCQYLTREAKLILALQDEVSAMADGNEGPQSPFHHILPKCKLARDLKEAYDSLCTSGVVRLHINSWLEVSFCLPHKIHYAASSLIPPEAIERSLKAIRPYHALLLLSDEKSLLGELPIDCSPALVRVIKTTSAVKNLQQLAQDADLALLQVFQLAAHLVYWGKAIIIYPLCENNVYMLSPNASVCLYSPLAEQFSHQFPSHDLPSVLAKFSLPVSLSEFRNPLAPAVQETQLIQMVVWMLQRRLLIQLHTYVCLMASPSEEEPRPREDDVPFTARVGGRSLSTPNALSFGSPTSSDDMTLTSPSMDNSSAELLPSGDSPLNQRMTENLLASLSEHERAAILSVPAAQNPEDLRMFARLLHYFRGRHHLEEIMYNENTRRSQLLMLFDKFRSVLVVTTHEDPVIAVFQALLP
UniProt Q8TCD5: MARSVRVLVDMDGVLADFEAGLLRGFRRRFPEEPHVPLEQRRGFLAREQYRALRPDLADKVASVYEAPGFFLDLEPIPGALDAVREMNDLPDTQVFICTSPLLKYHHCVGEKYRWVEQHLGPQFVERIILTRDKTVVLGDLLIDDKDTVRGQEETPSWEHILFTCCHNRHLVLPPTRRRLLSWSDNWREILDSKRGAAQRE
UniProt P22392, whole entry, looked up: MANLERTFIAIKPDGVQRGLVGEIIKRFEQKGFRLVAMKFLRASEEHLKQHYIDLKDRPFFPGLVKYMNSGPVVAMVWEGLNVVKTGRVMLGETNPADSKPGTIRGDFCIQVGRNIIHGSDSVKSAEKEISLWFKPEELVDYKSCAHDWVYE

Assays:
Assay in all cases: log2 fold change, soluble protein after heating vs DMSO (PISA); higher = thermal stabilisation; K562 lysate, 10 uM; active = over 0.2 and 3.5 SD of the protein, either way, in both replicates (recomputed)
[1] = compound: NCC(=O)Nc1ccc(-n2nc(C(F)(F)F)cc2-c2ccc3c(ccc4ccccc43)c2)cc1
How it was run: (§1)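 K562 pellets were dounce-homogenised in PBS pH 7.4 with 1 mM MgCl2, and the crude extract at 1 mg/mL protein was treated with 10 μM compound for 30 min. Aliquots were heated for 3 min across 48°C-58°C, pooled, and brought to 0.5% NP-40 at 4°C; soluble protein was the supernatant after 21,000xg for 90 min. Soluble protein was quantified by TMTpro 16plex LC-MS/MS with channel sums equalised, and reported as log2 fold change in thermal stability against DMSO controls, with values from duplicates.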

vorinostat = compound: O=C(CCCCCCC(=O)Nc1ccccc1)NO [vorinostat]
How it was run: as §1

silmitasertib = compound: O=C(O)c1ccc2c(c1)nc(Nc1cccc(Cl)c1)c1ccncc12 [silmitasertib]
How it was run: as §1

[2] = compound: O=C1NC(=O)C(c2cnc3ccccn23)=C1c1cn2c3c(cc(F)cc13)CN(C(=O)N1CCCCC1)CC2
How it was run: as §1

entospletinib = compound: c1cn2cc(-c3ccc4cn[nH]c4c3)nc(Nc3ccc(N4CCOCC4)cc3)c2n1 [entospletinib]
How it was run: as §1

Measured: log2 fold change

NPM3 (UniProt O75607)
inactive: [1] -0.049 | vorinostat -0.012 | silmitasertib 0.021 | [2] -0.019 | entospletinib -0.037

NUDT9 (UniProt Q9BW91)
inactive: [1] 0.028 | vorinostat -0.023 | silmitasertib -0.023 | [2] 0.026 | entospletinib 0.004

NME3 (UniProt Q13232)
inactive: [1] -0.014 | vorinostat -0.011 | silmitasertib 0.031 | [2] 0.011 | entospletinib -0.086

NOS1AP (UniProt O75052)
inactive: [1] 0.248 | vorinostat -0.585 | silmitasertib 0.142 | [2] -0.303 | entospletinib -0.033

Looked up one by one from above, 2 records:
NPM3 (UniProt O75607)
inactive: [1] -0.049 | vorinostat -0.012 | silmitasertib 0.021 | [2] -0.019 | entospletinib -0.037

NUDT9 (UniProt Q9BW91)
inactive: [1] 0.028 | vorinostat -0.023 | silmitasertib -0.023 | [2] 0.026 | entospletinib 0.004

Carrying on.

NSUN7 (UniProt Q8NE18)
inactive: [1] 0.241 | vorinostat -0.003 | silmitasertib 0.005 | [2] -0.108 | entospletinib -0.042

NPM1 (UniProt P06748)
inactive: [1] -0.008 | vorinostat 0.187 | silmitasertib -0.005 | [2] 0.035 | entospletinib -0.023

NOP14 (UniProt P78316)
inactive: [1] 0.001 | vorinostat 0.018 | silmitasertib 0.019 | [2] 0.006 | entospletinib -0.034

NOP56 (UniProt O00567)
inactive: [1] -0.065 | vorinostat 0.005 | silmitasertib 0.006 | [2] -0.014 | entospletinib -0.014

NR2C2 isoform 2 (UniProt P49116)
inactive: [1] -0.024 | vorinostat -0.233 | silmitasertib 0.041 | [2] 0.008 | entospletinib 0.028

NOP16 (UniProt Q9Y3C1)
inactive: [1] 0.008 | vorinostat -0.05 | silmitasertib -0.025 | [2] -0.054 | entospletinib -0.013

NUDT4 isoform 2 (UniProt Q9NZJ9)
inactive: [1] 0.057 | silmitasertib -0.034 | [2] 0.018 | entospletinib -0.023
active: vorinostat -0.336

NOC3L (UniProt Q8WTT2)
inactive: [1] 0.012 | vorinostat -0.036 | silmitasertib -0.029 | [2] 0.02 | entospletinib 0.039

NOSTRIN (UniProt Q8IVI9)
active: vorinostat -0.27
inactive: [1] -0.083 | silmitasertib 0.028 | [2] 0.019 | entospletinib 0.018

NUCB1 (UniProt Q02818)
inactive: [1] 0.022 | vorinostat 0.08 | silmitasertib -0.02 | [2] -0.015 | entospletinib -0.037

NME2P1 (UniProt O60361)
inactive: [1] 0.18 | vorinostat 0 | silmitasertib 0.025 | [2] -0.168

NUDT1 (UniProt P36639)
inactive: [1] 0.009 | vorinostat 0.06 | silmitasertib -0.069 | [2] 0.004 | entospletinib -0.037

NOL8 (UniProt Q76FK4)
inactive: [1] 0.023 | vorinostat 0.046 | silmitasertib 0.067 | [2] 0.018

NUDCD2 (UniProt Q8WVJ2)
inactive: [1] 0.019 | vorinostat 0.139 | silmitasertib -0.041 | [2] 0.038 | entospletinib -0.029

NPRL3 (UniProt Q12980)
inactive: [1] -0.098 | vorinostat -0.153 | silmitasertib 0.032 | [2] -0.045

NT5C (UniProt Q8TCD5)
inactive: [1] 0.011 | vorinostat 0.103 | silmitasertib -0.02 | [2] -0.06 | entospletinib 0.025

NMI (UniProt Q13287)
inactive: [1] 0.025 | vorinostat 0.075 | silmitasertib -0.015 | [2] -0.014 | entospletinib -0.024

NOL6 (UniProt Q9H6R4)
inactive: [1] 0.012 | vorinostat -0.126 | silmitasertib 0.048 | [2] 0.103 | entospletinib 0.021

NNT (UniProt Q13423)
inactive: [1] 0.02 | vorinostat 0.023 | silmitasertib -0.001 | [2] -0.036 | entospletinib -0.01

NSF (UniProt P46459)
inactive: [1] -0.006 | vorinostat -0.176 | silmitasertib 0.018 | [2] -0.011 | entospletinib 0.022

NME2 isoform 2 (UniProt P22392)
inactive: [1] 0.035 | vorinostat 0.133 | silmitasertib -0.023 | [2] 0.004 | entospletinib 0.014
